PubChem BioAssay AID1508597, Cure First, 2020

Test: 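Knock-downs altering ovarian cancer cell survival with or without PARP inhibitor rucaparib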 (primary screen)
Cells: human ovarian carcinoma lines grown from tumours: OCI-P5x (papillary serous) and OCI-C5x (clear cell)
Reagent: siRNA pool against human genes, 1.25 pmol siRNA per well
Timing: 72 h or 96 h, depending on the cell culture
Conditions: rucaparib 20 µM (about IC30) or vehicle, present until read-out
Rucaparib or vehicle: Vehicle
Cell line: OCI-C5x (clear cell)
Detection: 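ATP luminescence measured at 72 or 96 h according to the culture, then normalised and expressed as percent viability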
Scale: viability, normalised: higher = more viable cells remaining
Rule for the call: 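Active when normalised viability falls below 80 percent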
Meaning of the calls: active = viability under 80%; inactive = viability 80% or more
Shown is an unselected part of the about 2,100 reagents, in one setting of the screen. 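Calls flag viability under 80% in either arm, not effects specific to rucaparib; the reference for percent is not stated.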 Reagent sequences are not shown. Not given: the 100% reference.

target	PubChem SID	technical replicate	viability, normalised (%)	Call
GK (glycerol kinase)	SID405527595	1	72.7	active
GK (glycerol kinase)	SID405527595	2	56.3	active
GK (glycerol kinase)	SID405527595	3	64.2	active
MAP3K20 (mitogen-activated protein kinase kinase kinase 20)	SID405528556	1	58.8	active
MAP3K20 (mitogen-activated protein kinase kinase kinase 20)	SID405528556	2	75.5	active
MAP3K20 (mitogen-activated protein kinase kinase kinase 20)	SID405528556	3	59.3	active
SATB2 (SATB homeobox 2)	SID405527273	1	33.9	active
SATB2 (SATB homeobox 2)	SID405527273	2	33.3	active
SATB2 (SATB homeobox 2)	SID405527273	3	29.7	active
MAGI2	SID405527768	1	54	active
MAGI2	SID405527768	2	50.9	active
MAGI2	SID405527768	3	37.3	active

Entries above whose gene name begins with S or s (3):
target	PubChem SID	technical replicate	viability, normalised (%)	Call
SATB2 (SATB homeobox 2)	SID405527273	1	33.9	active
SATB2 (SATB homeobox 2)	SID405527273	2	33.3	active
SATB2 (SATB homeobox 2)	SID405527273	3	29.7	active
